# According to the supplement of paper PMC10849652:
# The chains behind the UniProt entries cited, without tags or fusion partners. Where a name states a change or a piece, a line headed by the entry shows the natural chain unless it says otherwise.
# UniProt Q96KS0, whole entry, looked up: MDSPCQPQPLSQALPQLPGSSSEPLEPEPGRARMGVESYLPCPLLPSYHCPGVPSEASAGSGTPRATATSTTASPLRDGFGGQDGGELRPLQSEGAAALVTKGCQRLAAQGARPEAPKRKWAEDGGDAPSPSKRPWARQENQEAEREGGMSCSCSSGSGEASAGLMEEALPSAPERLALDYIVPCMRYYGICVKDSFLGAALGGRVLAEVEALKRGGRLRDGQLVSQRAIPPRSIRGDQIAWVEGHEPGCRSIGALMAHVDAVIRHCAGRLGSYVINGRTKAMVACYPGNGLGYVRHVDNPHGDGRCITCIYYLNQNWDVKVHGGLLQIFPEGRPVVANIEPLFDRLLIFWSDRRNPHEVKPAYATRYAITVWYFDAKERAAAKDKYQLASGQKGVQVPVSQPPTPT
# UniProt Q9GZT9: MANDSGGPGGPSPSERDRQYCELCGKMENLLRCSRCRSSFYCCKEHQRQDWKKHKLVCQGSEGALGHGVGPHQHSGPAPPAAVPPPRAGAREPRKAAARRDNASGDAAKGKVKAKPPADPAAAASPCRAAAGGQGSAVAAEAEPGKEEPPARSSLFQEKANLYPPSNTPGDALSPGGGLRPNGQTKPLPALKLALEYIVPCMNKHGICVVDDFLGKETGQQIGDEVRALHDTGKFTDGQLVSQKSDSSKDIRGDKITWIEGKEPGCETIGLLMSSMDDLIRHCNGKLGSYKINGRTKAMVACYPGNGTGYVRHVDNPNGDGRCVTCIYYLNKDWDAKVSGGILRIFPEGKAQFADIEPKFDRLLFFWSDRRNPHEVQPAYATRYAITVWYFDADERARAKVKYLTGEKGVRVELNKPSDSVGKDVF
# UniProt Q96FX2: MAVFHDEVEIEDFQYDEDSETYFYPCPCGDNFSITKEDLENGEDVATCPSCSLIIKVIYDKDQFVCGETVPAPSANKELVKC
# UniProt Q8NCM8: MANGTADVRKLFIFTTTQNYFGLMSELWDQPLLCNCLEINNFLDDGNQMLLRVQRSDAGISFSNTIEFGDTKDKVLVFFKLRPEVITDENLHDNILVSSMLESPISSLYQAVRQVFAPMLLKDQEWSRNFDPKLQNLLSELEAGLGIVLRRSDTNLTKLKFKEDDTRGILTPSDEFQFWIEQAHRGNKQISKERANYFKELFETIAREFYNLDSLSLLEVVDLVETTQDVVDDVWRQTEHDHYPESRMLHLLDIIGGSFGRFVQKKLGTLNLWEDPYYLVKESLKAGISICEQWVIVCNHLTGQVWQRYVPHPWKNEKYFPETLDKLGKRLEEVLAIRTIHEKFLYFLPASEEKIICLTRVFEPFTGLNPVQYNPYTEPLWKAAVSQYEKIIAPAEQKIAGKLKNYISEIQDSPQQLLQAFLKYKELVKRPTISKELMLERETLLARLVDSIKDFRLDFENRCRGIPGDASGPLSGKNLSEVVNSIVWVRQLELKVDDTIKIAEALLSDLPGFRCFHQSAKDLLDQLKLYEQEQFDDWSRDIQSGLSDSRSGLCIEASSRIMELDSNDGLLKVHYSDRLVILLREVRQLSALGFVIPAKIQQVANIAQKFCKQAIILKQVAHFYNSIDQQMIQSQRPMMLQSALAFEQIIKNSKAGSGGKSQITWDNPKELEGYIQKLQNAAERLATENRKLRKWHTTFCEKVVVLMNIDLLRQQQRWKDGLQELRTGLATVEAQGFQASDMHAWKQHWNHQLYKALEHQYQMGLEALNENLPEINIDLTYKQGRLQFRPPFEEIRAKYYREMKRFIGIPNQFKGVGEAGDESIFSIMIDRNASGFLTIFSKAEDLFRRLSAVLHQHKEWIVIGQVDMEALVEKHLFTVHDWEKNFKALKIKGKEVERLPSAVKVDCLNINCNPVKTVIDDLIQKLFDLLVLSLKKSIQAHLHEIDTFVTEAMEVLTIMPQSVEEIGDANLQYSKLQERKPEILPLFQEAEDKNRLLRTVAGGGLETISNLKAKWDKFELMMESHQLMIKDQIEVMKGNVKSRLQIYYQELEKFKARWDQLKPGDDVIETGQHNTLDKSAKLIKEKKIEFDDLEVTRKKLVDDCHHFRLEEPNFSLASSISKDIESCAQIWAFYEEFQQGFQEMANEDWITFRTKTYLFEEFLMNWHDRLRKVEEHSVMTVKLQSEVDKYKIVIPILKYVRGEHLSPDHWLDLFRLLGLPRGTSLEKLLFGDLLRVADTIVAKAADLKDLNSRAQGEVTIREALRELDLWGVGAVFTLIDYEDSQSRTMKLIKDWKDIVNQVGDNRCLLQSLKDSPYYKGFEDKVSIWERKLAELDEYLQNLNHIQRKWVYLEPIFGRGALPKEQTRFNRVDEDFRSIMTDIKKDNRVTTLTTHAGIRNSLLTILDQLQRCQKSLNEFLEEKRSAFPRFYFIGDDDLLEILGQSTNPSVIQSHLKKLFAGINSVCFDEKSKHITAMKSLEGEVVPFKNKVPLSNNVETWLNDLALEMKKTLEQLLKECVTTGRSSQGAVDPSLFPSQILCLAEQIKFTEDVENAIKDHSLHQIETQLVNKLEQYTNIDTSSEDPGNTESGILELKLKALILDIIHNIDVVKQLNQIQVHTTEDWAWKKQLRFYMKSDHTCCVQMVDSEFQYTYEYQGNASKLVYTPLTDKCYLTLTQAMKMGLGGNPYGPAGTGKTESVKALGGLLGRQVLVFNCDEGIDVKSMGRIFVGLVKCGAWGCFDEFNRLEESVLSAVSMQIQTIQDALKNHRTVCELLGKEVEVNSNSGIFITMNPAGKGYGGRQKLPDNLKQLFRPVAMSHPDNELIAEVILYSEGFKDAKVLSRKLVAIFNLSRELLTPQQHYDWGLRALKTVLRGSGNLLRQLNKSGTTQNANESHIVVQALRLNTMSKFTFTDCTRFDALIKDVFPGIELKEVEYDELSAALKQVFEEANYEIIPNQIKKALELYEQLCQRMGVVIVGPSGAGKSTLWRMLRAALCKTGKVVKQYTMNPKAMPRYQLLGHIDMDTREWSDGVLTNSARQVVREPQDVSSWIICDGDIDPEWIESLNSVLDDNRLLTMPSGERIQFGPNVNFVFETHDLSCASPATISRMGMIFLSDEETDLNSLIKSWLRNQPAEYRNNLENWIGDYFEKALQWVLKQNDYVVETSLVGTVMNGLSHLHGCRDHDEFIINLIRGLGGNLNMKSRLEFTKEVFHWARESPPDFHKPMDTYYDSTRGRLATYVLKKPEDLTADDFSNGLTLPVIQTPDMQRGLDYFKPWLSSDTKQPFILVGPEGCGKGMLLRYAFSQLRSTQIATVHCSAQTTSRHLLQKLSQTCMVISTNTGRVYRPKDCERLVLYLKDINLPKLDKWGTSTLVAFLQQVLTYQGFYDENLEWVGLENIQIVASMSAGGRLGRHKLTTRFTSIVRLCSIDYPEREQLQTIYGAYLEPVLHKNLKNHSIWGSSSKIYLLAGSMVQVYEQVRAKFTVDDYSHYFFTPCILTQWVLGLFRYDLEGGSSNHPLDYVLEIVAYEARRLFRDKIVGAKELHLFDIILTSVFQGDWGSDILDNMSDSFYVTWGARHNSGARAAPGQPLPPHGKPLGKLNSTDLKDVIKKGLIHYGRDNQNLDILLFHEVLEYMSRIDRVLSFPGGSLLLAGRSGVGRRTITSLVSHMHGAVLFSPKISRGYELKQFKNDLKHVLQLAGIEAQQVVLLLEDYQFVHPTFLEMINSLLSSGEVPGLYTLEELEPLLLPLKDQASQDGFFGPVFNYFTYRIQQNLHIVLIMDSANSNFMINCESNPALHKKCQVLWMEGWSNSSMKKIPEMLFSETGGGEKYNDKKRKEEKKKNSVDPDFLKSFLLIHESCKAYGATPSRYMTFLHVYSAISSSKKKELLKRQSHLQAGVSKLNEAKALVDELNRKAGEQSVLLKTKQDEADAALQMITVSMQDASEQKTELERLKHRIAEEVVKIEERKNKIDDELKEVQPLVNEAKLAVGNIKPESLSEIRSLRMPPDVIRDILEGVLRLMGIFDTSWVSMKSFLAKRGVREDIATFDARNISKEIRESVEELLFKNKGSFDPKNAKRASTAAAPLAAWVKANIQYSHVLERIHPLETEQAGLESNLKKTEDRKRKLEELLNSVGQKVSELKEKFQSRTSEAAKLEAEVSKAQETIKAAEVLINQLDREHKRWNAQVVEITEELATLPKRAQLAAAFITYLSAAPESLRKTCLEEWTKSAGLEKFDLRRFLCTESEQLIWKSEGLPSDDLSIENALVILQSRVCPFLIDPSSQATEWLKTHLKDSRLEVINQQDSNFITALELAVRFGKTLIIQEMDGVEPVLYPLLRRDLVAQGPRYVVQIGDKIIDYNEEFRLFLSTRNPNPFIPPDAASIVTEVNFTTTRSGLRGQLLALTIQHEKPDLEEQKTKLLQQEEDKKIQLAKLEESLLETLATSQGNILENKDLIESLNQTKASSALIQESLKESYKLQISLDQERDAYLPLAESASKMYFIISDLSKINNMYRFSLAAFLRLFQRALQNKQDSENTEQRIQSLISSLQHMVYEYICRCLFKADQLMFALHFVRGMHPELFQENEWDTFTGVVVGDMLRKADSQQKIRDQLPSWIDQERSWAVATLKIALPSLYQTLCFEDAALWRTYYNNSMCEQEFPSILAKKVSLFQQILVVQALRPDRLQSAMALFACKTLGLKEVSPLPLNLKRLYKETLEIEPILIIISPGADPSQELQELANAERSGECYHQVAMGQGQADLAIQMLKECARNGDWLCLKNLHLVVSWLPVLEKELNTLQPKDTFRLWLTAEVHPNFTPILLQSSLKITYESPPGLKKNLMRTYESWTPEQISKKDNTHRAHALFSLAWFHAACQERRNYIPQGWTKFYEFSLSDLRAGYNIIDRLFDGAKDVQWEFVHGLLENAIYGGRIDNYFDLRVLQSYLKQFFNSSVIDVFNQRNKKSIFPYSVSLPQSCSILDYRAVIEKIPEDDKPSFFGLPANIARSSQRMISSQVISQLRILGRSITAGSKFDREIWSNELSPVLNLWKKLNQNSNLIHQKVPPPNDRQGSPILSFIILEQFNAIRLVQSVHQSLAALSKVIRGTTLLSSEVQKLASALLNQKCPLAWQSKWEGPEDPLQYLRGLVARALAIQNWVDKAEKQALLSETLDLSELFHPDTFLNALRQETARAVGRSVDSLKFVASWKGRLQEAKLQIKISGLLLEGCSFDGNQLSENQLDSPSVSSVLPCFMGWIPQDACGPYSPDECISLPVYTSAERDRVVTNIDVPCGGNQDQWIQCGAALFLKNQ
# UniProt O14640: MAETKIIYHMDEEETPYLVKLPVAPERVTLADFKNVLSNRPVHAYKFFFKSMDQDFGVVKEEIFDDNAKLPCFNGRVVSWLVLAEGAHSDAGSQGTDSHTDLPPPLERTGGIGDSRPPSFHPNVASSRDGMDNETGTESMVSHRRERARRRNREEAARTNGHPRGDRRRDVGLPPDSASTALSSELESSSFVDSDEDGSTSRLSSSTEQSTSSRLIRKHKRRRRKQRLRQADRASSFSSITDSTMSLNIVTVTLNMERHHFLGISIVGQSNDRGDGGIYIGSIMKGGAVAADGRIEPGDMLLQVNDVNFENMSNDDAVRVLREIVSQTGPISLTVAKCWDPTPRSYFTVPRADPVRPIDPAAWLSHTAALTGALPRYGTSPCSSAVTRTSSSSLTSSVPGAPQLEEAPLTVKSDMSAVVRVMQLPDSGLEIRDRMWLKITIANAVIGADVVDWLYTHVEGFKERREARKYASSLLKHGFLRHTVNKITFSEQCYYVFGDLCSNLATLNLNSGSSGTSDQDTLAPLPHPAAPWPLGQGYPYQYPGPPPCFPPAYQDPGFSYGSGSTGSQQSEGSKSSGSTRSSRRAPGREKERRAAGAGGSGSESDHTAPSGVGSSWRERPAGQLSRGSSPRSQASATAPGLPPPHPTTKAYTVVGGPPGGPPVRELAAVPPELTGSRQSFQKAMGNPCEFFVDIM
# UniProt O14576, whole entry, looked up: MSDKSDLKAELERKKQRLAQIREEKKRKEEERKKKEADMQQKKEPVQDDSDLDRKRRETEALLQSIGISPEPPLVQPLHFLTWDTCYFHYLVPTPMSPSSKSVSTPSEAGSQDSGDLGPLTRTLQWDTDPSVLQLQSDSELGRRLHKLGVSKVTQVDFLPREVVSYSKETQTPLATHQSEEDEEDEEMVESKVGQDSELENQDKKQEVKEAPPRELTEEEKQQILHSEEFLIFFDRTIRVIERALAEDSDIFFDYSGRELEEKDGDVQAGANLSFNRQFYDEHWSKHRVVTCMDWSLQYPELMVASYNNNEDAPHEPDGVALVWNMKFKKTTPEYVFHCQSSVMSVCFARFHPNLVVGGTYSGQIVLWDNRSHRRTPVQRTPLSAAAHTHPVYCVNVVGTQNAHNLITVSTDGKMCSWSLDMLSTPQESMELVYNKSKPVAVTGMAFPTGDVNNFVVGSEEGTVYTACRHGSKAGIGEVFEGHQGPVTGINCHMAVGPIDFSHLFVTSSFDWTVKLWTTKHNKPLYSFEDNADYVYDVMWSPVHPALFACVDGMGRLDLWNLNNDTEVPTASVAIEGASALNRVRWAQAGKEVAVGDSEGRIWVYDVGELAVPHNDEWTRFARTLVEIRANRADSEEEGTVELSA
# The other results are listed elsewhere or left out.
# Compound: NCC(=O)Nc1ccc(-n2nc(C(F)(F)F)cc2-c2ccc3c(ccc4ccccc43)c2)cc1
# Assay: log2 fold change, soluble protein after heating vs DMSO (PISA); higher = thermal stabilisation; K562 lysate, 10 uM; active = over 0.2 and 3.5 SD of the protein, either way, in both replicates (recomputed)
# Summary of the method: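 Log-two fold change in thermal stability relative to solvent controls is reported from duplicates. For each sample, crude K562 extract from dounce-homogenised pellets in PBS pH 7.4 with 1 mM MgCl2, at 1 mg/mL protein, was treated with 10 μM compound for 30 min. Aliquots heated for 3 min across 48°C-58°C were pooled, brought to 0.5% NP-40 at 4°C and cleared at 21,000xg for 90 min. The supernatant was quantified by TMTpro 16plex LC-MS/MS with channel sums equalised.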
row,Target,log2 fold change
1,EBAG9 isoform 2 (UniProt O00559),inactive: 0.04
2,EGLN2 (UniProt Q96KS0),inactive: -0.094
3,EGLN1 (UniProt Q9GZT9),inactive: 0.008
4,DPH3 (UniProt Q96FX2),inactive: -0.038
5,DTX3L (UniProt Q8TDB6),inactive: 0.002
6,DYNC2LI1 (UniProt Q8TCX1),inactive: 0.047
7,DPP3 (UniProt Q9NY33),inactive: -0.024
8,DPH1 (UniProt Q9BZG8),inactive: -0.019
9,DYNC2H1 isoform 2 (UniProt Q8NCM8),inactive: 0.044
10,DYNC1LI2 (UniProt O43237),inactive: 0.037
11,DYNLL1 (UniProt P63167),inactive: -0.057
12,DSC2 (UniProt Q02487),inactive: -0.029
13,DVL1 (UniProt O14640),inactive: 0.15
14,DYNC1I1 (UniProt O14576),inactive: 0.094
15,EFL1 (UniProt Q7Z2Z2),inactive: 0.01
16,DRAP1 (UniProt E9PQX9),inactive: 0.032
17,DSG2 (UniProt Q14126),inactive: 0.016
18,EFR3A (UniProt Q14156),inactive: -0.038
19,DUSP14 (UniProt O95147),inactive: -0.043

# 2 entries picked at random from the list so far:
row,Target,log2 fold change
19,DUSP14 (UniProt O95147),inactive: -0.043
6,DYNC2LI1 (UniProt Q8TCX1),inactive: 0.047
